{"source": "patent US20170027893A1", "about": "“THIOSEMICARBAZONES INHIBITORS OF LYSOPHOSPHATIDIC ACID ACYLTRANSFERASE AND USES THEREOF” (H. LEE CANCER CENTER AND RESEARCH INSTITUTE, INC., priority 2014, published 2017)", "target": "T1, LPAAT-β (Homo sapiens, UniProt O15120)", "T1 sequence (O15120 24-278)": "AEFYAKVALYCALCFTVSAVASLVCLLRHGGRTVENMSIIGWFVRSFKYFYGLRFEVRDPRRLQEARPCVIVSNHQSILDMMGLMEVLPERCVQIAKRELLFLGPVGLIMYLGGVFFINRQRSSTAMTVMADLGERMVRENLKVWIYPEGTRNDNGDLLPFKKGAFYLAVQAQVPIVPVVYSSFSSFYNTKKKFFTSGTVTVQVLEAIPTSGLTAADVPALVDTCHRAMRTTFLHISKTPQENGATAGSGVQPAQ", "assay": "secondary thin layer chromatography (TLC) assay measuring fluorescent PA", "type": "biochemical", "set-up": "The assay utilizes full-length, recombinant, baculovirus-produced LPAAT-β; made in house", "conditions": "Table 4", "note": "Some entries share one result that the patent states for a list of compounds."}
{"smiles": "C=CCc1cc(C(C)=O)cc(C(C)=NNC(N)=S)c1O", "note": "[Compound 19l]", "values": [{"measurement": "IC50", "value": "> 10", "unit": "µM"}]}
{"smiles": "C=CCc1cc(CC(=O)OC)cc(C(C)=NNC(N)=S)c1O", "note": "[Compound 19m]", "values": [{"measurement": "IC50", "value": "> 10", "unit": "µM"}]}
